# Assay results from the supplement of paper PMC8728848.
# Some of the results follow.
# B1: AT3G44510(29) (Arabidopsis thaliana), F4J341 (protein)
# chain: MEEHLQGRIKLHDGRYLAYKERGVPKDDAKFTIVLVHGFGSSKDMNFNVSQELVNEIGIYFVLYDRAGYGESDPNPKRSLKSEAYDVQELADGLEIGSRFYLIGISMGSYTVWSCLKHIPQRLAGVAMVAPVVNFRWPSIPKSLMPKDYRREVAKWSVWIANYFPGLLQWLVTQNMFSTTSMLEKNPVYFNDQDIEVLKHIKGFPMLTKEKLRERGVFGTLRSDFLVAFGDWDFDPADLPDPSLSGPEKGSSSVHIWQGYEDKVMPFQLQRCLCRKLPWIRYHEVPKGGHLIVHYDGICDAILKSLLLGEDLPMYKPKAVITEPA
# Experiments:
# Assay in all cases: glycan array binding signal (z-score within array); higher = stronger binding
# Conditions in all cases: glycan notation: IUPAC condensed, linker removed
# Gal(a1-3)Gal = molecular target: Gal(a1-3)Gal
# Method in brief: (§1)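 From the Consortium for Functional Glycomics database, 3228 arrays were curated, keeping only those whose protein sequence was available. Binding is given as a within-array Z-score averaged across arrays sharing a protein sequence and across linkers. Negative Z-scores can be read as non-binding.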
# Gal(a1-3)Gal(b1-3)GlcNAc = molecular target: Gal(a1-3)Gal(b1-3)GlcNAc
# Method in brief: as §1
# [1] = molecular target: Gal(a1-3)Gal(b1-3)GlcNAc(b1-2)Man
# Method in brief: as §1
# [2] = molecular target: Gal(a1-3)Gal(b1-3)GlcNAc(b1-2)Man(a1-3)[Gal(a1-3)Gal(b1-3)GlcNAc(b1-2)Man(a1-6)]Man(b1-4)GlcNAc(b1-4)GlcNAc
# Method in brief: as §1
# [3] = molecular target: Gal(a1-3)Gal(b1-3)GlcNAc(b1-3)GalNAc
# Method in brief: as §1
# [4] = molecular target: Gal(a1-3)Gal(b1-3)GlcNAc(b1-6)GalNAc
# Method in brief: as §1
# [5] = molecular target: Gal(a1-3)Gal(b1-3)[Fuc(a1-4)]GlcNAc(b1-2)Man(a1-3)[Gal(a1-3)Gal(b1-3)[Fuc(a1-4)]GlcNAc(b1-2)Man(a1-6)]Man(b1-4)GlcNAc(b1-4)GlcNAc
# Method in brief: as §1
# Gal(a1-3)Gal(b1-4)Glc = molecular target: Gal(a1-3)Gal(b1-4)Glc
# Method in brief: as §1
# Gal(a1-3)Gal(b1-4)GlcNAc = molecular target: Gal(a1-3)Gal(b1-4)GlcNAc
# Method in brief: as §1
# [6] = molecular target: Gal(a1-3)Gal(b1-4)GlcNAc(b1-2)Man
# Method in brief: as §1
# [7] = molecular target: Gal(a1-3)Gal(b1-4)GlcNAc(b1-2)Man(a1-3)[Gal(a1-3)Gal(b1-4)GlcNAc(b1-2)Man(a1-6)]Man(b1-4)GlcNAc(b1-4)GlcNAc
# Method in brief: as §1
# [8] = molecular target: Gal(a1-3)Gal(b1-4)GlcNAc(b1-3)GalNAc
# Method in brief: as §1
# [9] = molecular target: Gal(a1-3)Gal(b1-4)GlcNAc(b1-6)GalNAc
# Method in brief: as §1
# [10] = molecular target: Gal(a1-3)Gal(b1-4)[Fuc(a1-3)]GlcNAc
# Method in brief: as §1
# [11] = molecular target: Gal(a1-3)Gal(b1-4)[Fuc(a1-3)]GlcNAc(b1-2)Man(a1-3)[Gal(a1-3)Gal(b1-4)[Fuc(a1-3)]GlcNAc(b1-2)Man(a1-6)]Man(b1-4)GlcNAc(b1-4)GlcNAc
# Method in brief: as §1
# Gal(a1-3)GalNAc = molecular target: Gal(a1-3)GalNAc
# Method in brief: as §1
# [12] = molecular target: Gal(a1-3)[Gal(a1-4)]Gal(b1-4)GlcNAc
# Method in brief: as §1
# [13] = molecular target: Gal(a1-4)Gal(b1-3)GlcNAc(b1-2)Man(a1-3)[Gal(a1-4)Gal(b1-3)GlcNAc(b1-2)Man(a1-6)]Man(b1-4)GlcNAc(b1-4)GlcNAc
# Method in brief: as §1
# Gal(a1-4)Gal(b1-4)Glc = molecular target: Gal(a1-4)Gal(b1-4)Glc
# Method in brief: as §1
# Gal(a1-4)Gal(b1-4)GlcNAc = molecular target: Gal(a1-4)Gal(b1-4)GlcNAc
# Method in brief: as §1
# [14] = molecular target: Gal(a1-4)Gal(b1-4)GlcNAc(b1-2)Man(a1-3)[Gal(a1-4)Gal(b1-4)GlcNAc(b1-2)Man(a1-6)]Man(b1-4)GlcNAc(b1-4)GlcNAc
# Method in brief: as §1
# [15] = molecular target: Gal(a1-4)Gal(b1-4)GlcNAc(b1-3)Gal(b1-4)Glc
# Method in brief: as §1
# Gal(a1-4)GlcNAc = molecular target: Gal(a1-4)GlcNAc
# Method in brief: as §1
# Gal(a1-6)Glc = molecular target: Gal(a1-6)Glc
# Method in brief: as §1
# Gal(b1-2)Gal = molecular target: Gal(b1-2)Gal
# Method in brief: as §1
# Gal(b1-3)Gal = molecular target: Gal(b1-3)Gal
# Method in brief: as §1
# Gal(b1-3)Gal(b1-4)GlcNAc = molecular target: Gal(b1-3)Gal(b1-4)GlcNAc
# Method in brief: as §1
# Gal(b1-3)GalNAc = molecular target: Gal(b1-3)GalNAc
# Method in brief: as §1
# [16] = molecular target: Gal(b1-3)GalNAc(a1-3)[Fuc(a1-2)]Gal(b1-4)Glc
# Method in brief: as §1
# [17] = molecular target: Gal(b1-3)GalNAc(a1-3)[Fuc(a1-2)]Gal(b1-4)GlcNAc
# Method in brief: as §1
# Gal(b1-3)GalNAc(b1-3)Gal = molecular target: Gal(b1-3)GalNAc(b1-3)Gal
# Method in brief: as §1
# [18] = molecular target: Gal(b1-3)GalNAc(b1-3)Gal(a1-4)Gal(b1-4)Glc
# Method in brief: as §1
# [19] = molecular target: Gal(b1-3)GalNAc(b1-4)Gal(b1-4)Glc
# Method in brief: as §1
# [20] = molecular target: Gal(b1-3)GalNAc(b1-4)[Neu5Ac(a2-3)]Gal(b1-4)Glc
# Method in brief: as §1
# Gal(b1-3)GlcNAc = molecular target: Gal(b1-3)GlcNAc
# Method in brief: as §1
# [21] = molecular target: Gal(b1-3)GlcNAc(a1-3)Gal(b1-4)GlcNAc
# Method in brief: as §1
# [22] = molecular target: Gal(b1-3)GlcNAc(a1-6)Gal(b1-4)GlcNAc
# Method in brief: as §1
# Gal(b1-3)GlcNAc(b1-2)Man = molecular target: Gal(b1-3)GlcNAc(b1-2)Man
# Method in brief: as §1
binder,measurement,setting,value
B1,glycan array binding signal (z-score),Gal(a1-3)Gal,-0.649
same,glycan array binding signal (z-score),Gal(a1-3)Gal(b1-3)GlcNAc,-0.707
same,glycan array binding signal (z-score),[1],-0.825
same,glycan array binding signal (z-score),[2],-0.399
same,glycan array binding signal (z-score),[3],-0.866
same,glycan array binding signal (z-score),[4],-0.135
same,glycan array binding signal (z-score),[5],0.473
same,glycan array binding signal (z-score),Gal(a1-3)Gal(b1-4)Glc,-0.538
same,glycan array binding signal (z-score),Gal(a1-3)Gal(b1-4)GlcNAc,-0.608
same,glycan array binding signal (z-score),[6],-0.482
same,glycan array binding signal (z-score),[7],-0.112
same,glycan array binding signal (z-score),[8],-0.275
same,glycan array binding signal (z-score),[9],-0.911
same,glycan array binding signal (z-score),[10],0.611
same,glycan array binding signal (z-score),[11],-0.647
same,glycan array binding signal (z-score),Gal(a1-3)GalNAc,2.52
same,glycan array binding signal (z-score),[12],7.13
same,glycan array binding signal (z-score),[13],-0.494
same,glycan array binding signal (z-score),Gal(a1-4)Gal(b1-4)Glc,3.6
same,glycan array binding signal (z-score),Gal(a1-4)Gal(b1-4)GlcNAc,0.224
same,glycan array binding signal (z-score),[14],0.7
same,glycan array binding signal (z-score),[15],-0.481
same,glycan array binding signal (z-score),Gal(a1-4)GlcNAc,-0.197
same,glycan array binding signal (z-score),Gal(a1-6)Glc,-0.803
same,glycan array binding signal (z-score),Gal(b1-2)Gal,-0.185
same,glycan array binding signal (z-score),Gal(b1-3)Gal,-0.091
same,glycan array binding signal (z-score),Gal(b1-3)Gal(b1-4)GlcNAc,-0.105
same,glycan array binding signal (z-score),Gal(b1-3)GalNAc,-0.263
same,glycan array binding signal (z-score),[16],-0.064
same,glycan array binding signal (z-score),[17],-0.44
same,glycan array binding signal (z-score),Gal(b1-3)GalNAc(b1-3)Gal,-0.725
same,glycan array binding signal (z-score),[18],-0.499
same,glycan array binding signal (z-score),[19],1.73
same,glycan array binding signal (z-score),[20],-0.184
same,glycan array binding signal (z-score),Gal(b1-3)GlcNAc,-0.484
same,glycan array binding signal (z-score),[21],0.445
same,glycan array binding signal (z-score),[22],-0.312
same,glycan array binding signal (z-score),Gal(b1-3)GlcNAc(b1-2)Man,0.081

# Taken from the entries so far (2 entries):
binder,measurement,setting,value
B1,glycan array binding signal (z-score),Gal(a1-3)Gal(b1-4)Glc,-0.538
same,glycan array binding signal (z-score),Gal(a1-3)Gal(b1-4)GlcNAc,-0.608
